Values of other authors in patent US20040092527A1, “Itraconazole bioavailability” (priority 2000, published 2004).

Details: in water and in acidic, e.g. aqueous, diluted hydrochloric acidic solvent (conditions as in the stomach)

CCC(C)n1ncn(-c2ccc(N3CCN(c4ccc(OCC5COC(Cn6cncn6)(c6ccc(Cl)cc6Cl)O5)cc4)CC3)cc2)c1=O (stereo not shown) [itraconazole]
solubility: insoluble
